Laboratory results taken from patent US20160030369A1, “FKBP52 TARGETING AGENT PHARMACEUTICAL COMPOSITIONS” (THE UNITED STATES OF AMERICA AS REPRESENTED BY THE …, priority 2013, published 2016).
At least one read-out could not be matched to a standard name with certainty.

Test: MJC13 solid-state (dry powder) storage stability
Assay type: physicochemical

O=C(Nc1cccc(Cl)c1Cl)C1CCCCC1 [MJC13]
1-month recovery (4° C.): 99.7±3.5% | 1-week recovery (4° C.): 99.3 ± 0.6% | 2-week recovery (4° C.): 100.7 ± 1.5% | 3-day recovery (4° C.): 99.3 ± 1.5% | 1-month recovery (room temperature): 95.3±2.8% | 1-week recovery (room temperature): 100.0 ± 3.6% | 2-week recovery (room temperature): 101.3 ± 3.8% | 3-day recovery (room temperature): 100.3 ± 3.2% | 1-month recovery (−20° C.): 97.3±2.5% | 1-week recovery (−20° C.): 97.7 ± 1.5% | 2-week recovery (−20° C.): 97.0 ± 1.0% | 3-day recovery (−20° C.): 99.3 ± 3.5%
